Here are results for 1 substance from paper PMC6699118.

Sequences of proteins named here, by UniProt entry; tags and fusion partners are left off. Residues count along the entry.
UniProt Q5M848: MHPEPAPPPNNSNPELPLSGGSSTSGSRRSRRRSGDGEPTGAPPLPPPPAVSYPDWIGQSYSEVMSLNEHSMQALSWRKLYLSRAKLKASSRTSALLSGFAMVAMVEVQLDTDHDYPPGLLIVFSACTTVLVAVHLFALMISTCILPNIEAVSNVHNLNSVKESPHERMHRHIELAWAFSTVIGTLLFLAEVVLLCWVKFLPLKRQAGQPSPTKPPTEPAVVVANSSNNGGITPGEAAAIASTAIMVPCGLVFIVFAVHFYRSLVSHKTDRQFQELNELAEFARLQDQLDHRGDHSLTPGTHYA
UniProt P84903, residues 23-685: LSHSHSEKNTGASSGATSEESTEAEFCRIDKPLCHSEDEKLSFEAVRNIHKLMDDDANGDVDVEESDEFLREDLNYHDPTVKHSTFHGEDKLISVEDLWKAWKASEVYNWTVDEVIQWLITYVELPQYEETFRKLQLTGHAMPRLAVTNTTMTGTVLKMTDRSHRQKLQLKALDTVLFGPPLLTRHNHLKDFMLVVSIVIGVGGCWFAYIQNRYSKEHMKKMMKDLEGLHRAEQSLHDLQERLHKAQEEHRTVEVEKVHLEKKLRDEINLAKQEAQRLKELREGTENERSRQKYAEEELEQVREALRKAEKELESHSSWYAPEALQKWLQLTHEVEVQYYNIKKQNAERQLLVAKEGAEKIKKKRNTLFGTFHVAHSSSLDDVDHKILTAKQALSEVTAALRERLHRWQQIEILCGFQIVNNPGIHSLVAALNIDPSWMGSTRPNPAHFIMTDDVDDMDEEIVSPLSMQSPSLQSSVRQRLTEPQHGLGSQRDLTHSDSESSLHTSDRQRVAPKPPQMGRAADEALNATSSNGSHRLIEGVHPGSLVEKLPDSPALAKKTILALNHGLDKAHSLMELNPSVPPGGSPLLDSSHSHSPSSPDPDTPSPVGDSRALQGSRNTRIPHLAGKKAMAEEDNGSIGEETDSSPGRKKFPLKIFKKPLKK

These are yes or no findings as the source states them, for the method shown. Binding seen in cells or lysates may run through a third protein. Some results given as binding are weak or reduced against the parent protein; the word gives no strength.

The assay addresses calcium release-activated calcium channel protein 1 (rat (endogenous in FLSs)) (UniProt Q5M848). Kind of assay: co-IP; lysates of FLSs in IP lysis buffer with protease inhibitor; 1 ug antibody for STIM1 or ORAI1 and protein A/G beads, 4 °C overnight; Western blot for the other protein; cells untreated or treated with 200 uM resveratrol, 200 uM resveratrol + ORAI1 overexpression vector, or ORAI1 SiRNA (within 5 uM H2O2). A general note: In western blotting, separated proteins are transferred to a membrane and probed.

As to “stromal interaction molecule 1 (from UniProt P84903 23-685)”, the binding entry is “binds”.
